Experimental data from patent publication US7485634B2, “Azepinoindole and pyridoindole derivatives as pharmaceutical agents” (Exelixis, Inc., priority 2002, dated 2009).
Some results were stated once for a whole list of compounds, not compound by compound.

By UniProt entry, the sequences of proteins in these tests, tags left out. Where a name states a change or a piece, a line headed by the entry shows the natural chain unless it says otherwise.
UniProt Q96RI1: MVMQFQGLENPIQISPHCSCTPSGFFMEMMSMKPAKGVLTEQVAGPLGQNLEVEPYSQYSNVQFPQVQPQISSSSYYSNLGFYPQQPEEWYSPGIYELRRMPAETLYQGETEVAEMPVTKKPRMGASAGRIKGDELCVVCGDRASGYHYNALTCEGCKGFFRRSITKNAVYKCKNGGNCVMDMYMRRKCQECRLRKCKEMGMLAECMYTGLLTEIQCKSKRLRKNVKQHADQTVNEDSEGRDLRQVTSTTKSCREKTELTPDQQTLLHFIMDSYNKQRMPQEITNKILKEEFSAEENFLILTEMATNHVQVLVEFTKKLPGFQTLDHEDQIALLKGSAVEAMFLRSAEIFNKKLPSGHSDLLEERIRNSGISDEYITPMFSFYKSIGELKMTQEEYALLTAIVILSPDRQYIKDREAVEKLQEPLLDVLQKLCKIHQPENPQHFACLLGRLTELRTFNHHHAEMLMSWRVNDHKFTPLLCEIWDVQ

Target: T1, full length human farnesoid X receptor (Homo sapiens, UniProt Q96RI1)
T1 construct: CMX-farnesoid X receptor (full length human farnesoid X receptor); expressed in transfected cells; host or cells: CV-1 African Green Monkey Kidney cells
T1 sequence (Q96RI1 1-472 isoform Q96RI1-2): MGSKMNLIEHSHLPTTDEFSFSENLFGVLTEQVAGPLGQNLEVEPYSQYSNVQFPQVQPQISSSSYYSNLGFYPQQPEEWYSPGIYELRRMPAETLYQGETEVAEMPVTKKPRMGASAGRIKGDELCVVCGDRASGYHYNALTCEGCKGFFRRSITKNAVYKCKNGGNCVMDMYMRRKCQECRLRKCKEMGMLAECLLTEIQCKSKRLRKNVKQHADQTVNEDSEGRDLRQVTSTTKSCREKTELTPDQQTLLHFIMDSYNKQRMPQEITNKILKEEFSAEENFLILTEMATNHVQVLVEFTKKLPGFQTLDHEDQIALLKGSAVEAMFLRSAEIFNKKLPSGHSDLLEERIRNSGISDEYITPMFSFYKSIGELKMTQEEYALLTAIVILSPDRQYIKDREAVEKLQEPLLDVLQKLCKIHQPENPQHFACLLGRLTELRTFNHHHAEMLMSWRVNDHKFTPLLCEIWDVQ
T1 sequence (P19793 1-462 partner): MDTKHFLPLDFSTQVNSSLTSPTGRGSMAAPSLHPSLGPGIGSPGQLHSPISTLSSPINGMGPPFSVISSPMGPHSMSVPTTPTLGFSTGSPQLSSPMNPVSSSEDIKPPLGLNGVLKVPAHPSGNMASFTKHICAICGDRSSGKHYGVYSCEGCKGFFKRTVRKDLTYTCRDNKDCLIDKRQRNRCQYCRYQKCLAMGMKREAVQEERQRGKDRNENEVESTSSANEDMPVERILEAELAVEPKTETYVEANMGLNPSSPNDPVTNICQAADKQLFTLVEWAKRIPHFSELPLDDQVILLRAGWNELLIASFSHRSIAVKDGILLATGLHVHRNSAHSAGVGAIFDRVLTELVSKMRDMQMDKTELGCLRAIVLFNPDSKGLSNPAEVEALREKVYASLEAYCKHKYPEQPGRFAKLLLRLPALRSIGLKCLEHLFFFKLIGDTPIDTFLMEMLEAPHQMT
Assay: farnesoid X receptor/ECREx7 co-transfection assay (luciferase reporter, CV-1 cells)
Type: cell-based
Conditions: agonist; relative to maximum response of chenodeoxycholic acid (CDCA)
Description: The basic co-transfection protocol for measuring the farnesoid X receptor activity is as follows. CV-1 African Green Monkey Kidney cells were plated 24 hours before transfection to achieve approximately 70-80 percent confluency. Cells were transfected with the following expression vectors, CMX-farnesoid X receptor (full length human farnesoid X receptor), CMX-RXRα (full length human RXR), Luc12 (ECREx7-Tk-Luciferase) luciferase reporter gene construct. (See WO 00/76523, Venkateswaran et al., (2000) J. Biol. Chem. 275 14700-14707). A CMX-β-Galactosidase expression vector was used as a transfection control. The transfection reagent used was DOTAP (Boehringer Mannheim). Cells were incubated with the DOTAP/DNA mixture for 5 hours after which the cells were harvested and plated onto either 96 well or 384 well plates containing the appropriate concentration of test compound. The assay was allowed to continue for an additional 18-20 hours, after which the cells were lysed, with lysis buffer (1% triton X 100, 10% glycerol, 5 mM Dithiothreitol, 1 mM EGTA, 25 mM Tricine, pH 7.8) and the luciferase activity measured in the presence of Luciferase assay buffer (0.73 mM ATP, 22.3 mM Tricine, 0.11 mM EGTA, 0.55 mM Luciferin, 0.15 mM Coenzyme A, 0.5 mM HEPES, 10 mM Magnesium sulphate) on a standard luminomter plate reader (PE Biosystems, NorthStar Reader), using recommended operating instructions and conditions.
Both the farnesoid X receptor/ECREx7 co-transfection assay (Example 76) and the TR-FRET assay (Example 75) can be used to establish the EC50/IC50 values for potency and percent activity or inhibition for efficacy. Efficacy defines the activity of a compound relative to a high control (chenodeoxycholic acid, CDCA) or a low control (DMSO/vehicle). The dose response curves are generated from an 8 point curve with concentrations differing by ½ LOG units. Each point represents the average of 4 wells of data from a 384 well plate. The curve for the data is generated by using the equation: Y=Bottom+(Top−Bottom)/(1+10^((LogEC50−X)*HillSlope))
The EC50/IC50 is therefore defined as the concentration at which an agonist or antagonist elicits a response that is half way between the Top (maximum) and Bottom (baseline) values. The EC50/IC50 values represented are the averages of at least 3 independent experiments. The determination of the relative efficacy or % control for an agonist is by comparison to the maximum response achieved by chenodeoxycholic acid that is measured individually in each dose response experiment.
For the antagonist assay, CDCA is added to each well of a 384 well plate to elicit a response. The % inhibition for each antagonist is therefore a measurement of the inhibition of the activity of CDCA.

Row | SMILES | efficacy
1 | O=C(NC1CCC1)C1=CN(C(=O)c2ccc(F)cc2)CCc2c1[nH]c1ccccc21 [3-(4-fluorobenzoyl)-1,2,3,6-tetrahydroazepino[4,5-b]indole-5-carboxylic acid cyclobutylamide] | greater than 100%
2 | CCOC(=O)C1=CN(C(=O)c2cccc(F)c2)CCc2c1[nH]c1ccccc21 [3-(3-fluorobenzoyl)-1,2,3,6-tetrahydroazepino[4,5-b]indole-5-carboxylic acid ethyl ester] | greater than 100%
3 | CCCOC(=O)C1=CN(C(=O)c2ccc(F)cc2)C(C)Cc2c1[nH]c1ccccc21 (stereo not shown) [n-propyl 3(4-fluorobenzoyl)-2-methyl-1,2,3,6-tetrahydroazepino[4,5-b]indole-5-carboxylate] | greater than 100%
4 | CCCOC(=O)C1=CN(C(=O)c2ccc(F)cc2)C(C)Cc2c1[nH]c1cc(F)ccc21 (stereo not shown) [n-propyl 3(4-fluorobenzoyl)-2-methyl-8-fluoro-1,2,3,6-tetrahydroazepino[4,5-b]indole-5-carboxylate] | greater than 100%
